Reference: paper PMC11316798, “Signaling by a bacterial phytochrome histidine kinase involves a conformational cascade reorganizing the dimeric photoreceptor” (Nature Communications, 2024)
No constants are given. Whether binding was seen depends on the method and setting.

Experiments:
[1] = target: T1, Pseudomonas syringae bacteriophytochrome photoreceptor BphP1 (PsBphP1), full length, assembled with biliverdin (Pseudomonas syringae) (UniProt Q885D3); assay: SEC; PsBphP1 (3 mg mL^-1) as Pr or Pfr mixed with PsAlgB (3 mg mL^-1) and 1.5 mM ATP, incubated 10 min; running buffer with 0.15 mM ATP, 5 mM MgCl2, 0.2 mM Na2EDTA, 175 mM KSCN, pH 7.5, 22 °C; both purified
T1 sequence (chain, biliverdin (BV) covalently linked via a thioether linkage to Cys16): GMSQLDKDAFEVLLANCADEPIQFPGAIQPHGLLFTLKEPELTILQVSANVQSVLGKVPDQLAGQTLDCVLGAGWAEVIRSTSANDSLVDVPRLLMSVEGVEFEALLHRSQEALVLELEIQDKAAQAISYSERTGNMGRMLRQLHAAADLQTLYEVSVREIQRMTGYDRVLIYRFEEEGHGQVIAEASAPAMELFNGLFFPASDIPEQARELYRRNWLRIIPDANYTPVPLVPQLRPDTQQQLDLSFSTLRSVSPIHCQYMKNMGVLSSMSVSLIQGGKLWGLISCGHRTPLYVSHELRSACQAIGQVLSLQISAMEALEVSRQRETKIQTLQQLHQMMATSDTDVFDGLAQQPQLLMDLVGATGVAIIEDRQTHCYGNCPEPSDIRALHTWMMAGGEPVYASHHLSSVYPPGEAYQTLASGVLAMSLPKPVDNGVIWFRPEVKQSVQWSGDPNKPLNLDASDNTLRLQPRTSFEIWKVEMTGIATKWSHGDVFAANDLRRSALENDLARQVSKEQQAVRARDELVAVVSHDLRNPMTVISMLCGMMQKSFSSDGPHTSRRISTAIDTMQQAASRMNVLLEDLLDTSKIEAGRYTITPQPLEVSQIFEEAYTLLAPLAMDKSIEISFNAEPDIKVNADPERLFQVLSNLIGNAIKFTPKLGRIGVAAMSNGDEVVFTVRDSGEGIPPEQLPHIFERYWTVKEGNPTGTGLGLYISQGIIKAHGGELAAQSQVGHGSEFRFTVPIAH

[2] = target: T1, Pseudomonas syringae bacteriophytochrome photoreceptor BphP1 (PsBphP1), full length, assembled with biliverdin (Pseudomonas syringae); assay: SEC; PsBphP1 (3 mg mL^-1) as Pr or Pfr mixed with the response regulator (3 mg mL^-1), incubated 10 min, without ATP; Superdex 200 Increase, 22 °C, 175 mM KSCN buffer pH 7.5 with 5 mM MgCl2 and 0.2 mM Na2EDTA; both purified

B1: Pseudomonas syringae response regulator AlgB (PsAlgB), full length (protein, UniProt Q88AQ2 1-448)
chain: GMEAATENQGRILLVDDESAILRTFRYCLEDEGYSVATANSAAQADTLMQRQVFDLCFLDLRLGEDNGLDVLAQMRIQAPWMRVVIVTAHSAVDTAVDAIQAGAADYLVKPCSPDQLRLATAKQLEVRQLSARLEALEGEVRKPKDGLDSHSPSMMAILETARQVAVTDANILILGESGTGKGELARAIHGWSKRAKKSCVTINCPSLTAELMESELFGHSRGAFTGASESTLGRVNQADGGTLFLDEIGDFPLTLQPKLLRFIQDKEYERVGDPVTRRADVRILAATNLNLEDMVRSGRFREDLLYRLNVITLHLPALRERSEDILTLADRFLARFVKEYARPARGFSEEARAALLNYRWPGNIRELRNVIERASIICPQERVEVSHLGMAEQPANNAPRVGAALSLDELEKAHIGAVLATSETLDQAAKTLGIDASTLYRKRKQYNL
In the case of B1, the binding [1] is reported as “no binding (tested: 3 mg mL^-1 each)” and the binding [2] is reported as “no binding (tested: 3 mg mL^-1 each)”.
